The other results are listed elsewhere or left out. Shown are side measurements of this screen, not its main read-out; they come without a call. Most of these compounds were active or inconclusive in the main read-out, so they are no random draw. Words in brackets tell the shape of the fitted curve; partial curves, single points and poor fits give uncertain potencies.
Test: Cell signaling CRE-BLA (Fsk stim)
Details: CHO CRE-bla reporter (cAMP response element driving beta-lactamase), forskolin EC10, beta-lactamase ratio; measured here: 460 nm blue channel
How it was run: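 Modulation of forskolin-driven signalling is measured in CHO cells carrying a CRE-controlled beta-lactamase reporter. Cells are stimulated with EC10 NKH 477 in the presence of titrated compound for 3 h at 37 °C, then loaded with CCF4 for 2 h at room temperature.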

Row | Compound | AC50
1 | Cn1c(=O)c(-c2ccc(F)cc2)nc2cnc(Nc3ccccc3)nc21 | 1.58 µM [rising, full curve]
2 | CSCCOC(=O)c1[nH]c2c(c1C)C(=O)CC(c1ccco1)C2 (centres undefined) | 10 µM [rising, partial curve]
3 | CCn1c(=O)c(C(=O)NCc2ccc(OC)c(OC)c2)c(O)c2ccccc21 | 1.58 µM [rising, partial curve]
4 | O=C(NCc1ccc(Cl)cc1Cl)c1ccccn1 | 0.398 µM [falling, full curve, poor fit]
5 | Cc1nc2ccccc2c(=O)n1/N=C/c1cccnc1 | 20 µM [rising, single point]
6 | Cc1cc(C)nc(N2CCCC(C(=O)NCCc3cccc(F)c3)C2)n1 (centres undefined) | 12.6 µM [falling, partial curve]
7 | CCOCCCNC(=O)c1cccs1 | 0.631 µM [falling, single point]
8 | CCOc1ccc(NS(=O)(=O)c2ccc3c(c2)CCN3C(=O)CCC(=O)O)cc1 | 0.158 µM [falling, full curve]
9 | N#Cc1cccc(-c2ccc3ncnc(NCc4ccccc4)c3c2)c1 | 3.98 µM [rising, single point]
10 | O=C(CCn1cnc2ccccc2c1=O)Nc1cccc(Cl)c1 | 20 µM [rising, partial curve, poor fit]
11 | Cc1cc(C)n2c(=S)[nH]nc2n1 | 0.501 µM [falling, single point]
12 | CCOC(=O)CC(=O)CSc1nc(C)nc2c1oc1ccccc12 | 12.6 µM [rising, partial curve]
13 | O=C(O)[C@H]1C[C@@H](CP(=O)(O)O)CCN1 | 12.6 µM [falling, single point]
14 | CCCn1c(=N)c(C(=O)NCc2ccc3c(c2)OCO3)cc2c(=O)n3cccc(C)c3nc21 | 20 µM [rising, single point]
15 | CCCOc1ccc(-c2nc(C#N)c(N3CCN(C)CC3)o2)cc1 | 10 µM [rising, partial curve]
16 | COc1ccc2c(CSc3nc4nc(C)cc(C)n4n3)cc(=O)oc2c1 | 10 µM [rising, partial curve]
17 | COc1cc(C(=O)NCc2nnc(SCC(=O)Nc3cc(C)cc(C)c3)o2)cc(OC)c1OC | 25.1 µM [rising, single point]
18 | Cc1cc(C)c2nc(N3CCCN(C(=O)c4cnccn4)CC3)c(C#N)cc2c1 | 12.6 µM [rising, partial curve]
19 | Cc1cc(Nc2cc(F)ccc2C)n2ncnc2n1 | 12.6 µM [rising, single point]
20 | Cc1csc(NC(=O)c2sc3nc(-c4cccs4)ccc3c2N)n1 | 12.6 µM [rising, partial curve]
21 | CCC(=O)N1CCc2cc(S(=O)(=O)N3CCc4ccccc43)ccc21 | 5.01 µM [rising, single point]
22 | O=C(NC1CCCCC1)C1CCCN(S(=O)(=O)c2cccs2)C1 (centres undefined) | 0.0794 µM [falling, full curve]

Row | Compound | AC50
23 | N#CCC(=O)Nc1sc2c(c1C(N)=O)CCCC2 | 12.6 µM [rising, partial curve]
24 | COc1cccc(C2C3CN(C)CC=C3C(C#N)=C(N)C2(C#N)C#N)c1OC (centres undefined) | 12.6 µM [rising, partial curve]
25 | O=C(OCc1c(Cl)nc2sccn12)c1cc2c(s1)CCCC2 | 0.794 µM [falling, partial curve]
26 | CCCOc1ccc2c(C)c(CC(=O)OC)c(=O)oc2c1 | 2.51 µM [rising, partial curve, poor fit]
27 | O=C(CN1C(=O)C2C3C=CC(C3)C2C1=O)N1CC=C(c2ccccc2)CC1 (centres undefined) | 0.00631 µM [falling, full curve]
28 | O=C(O)CCc1ccc(-c2ccc(Cl)cc2)n1CC(=O)O | 2 µM [rising, partial curve]
29 | CN(Cc1ccco1)c1cc(-c2ccc3c(c2)OCO3)ncn1 | 3.16 µM [rising, full curve]
30 | Cc1ccc(CCNC(=O)CN2C(=O)COc3ccccc32)cc1 | 0.00398 µM [falling, full curve, poor fit]
31 | O=C1c2ccccc2C(Nc2ccc3c(c2)OCCO3)N1Cc1ccc2c(c1)OCO2 (centres undefined) | 25.1 µM [falling, single point]
32 | CCCS(=O)(=O)N1CCC(C(=O)NC2CCC(C)CC2)CC1 (centres undefined) | 0.158 µM [falling, full curve]
33 | O=c1c2c3nc4ccccc4nc3n(-c3cccc(F)c3)c2ncn1Cc1ccc2c(c1)OCO2 | 6.31 µM [rising, partial curve]
34 | CCn1nc(-c2ccccc2)c2nc3ccccc3nc21 | 15.8 µM [rising, partial curve]
35 | Cc1cc(NCCCN2CCOCC2)n2nc(C)c(-c3ccccc3)c2n1 | 0.0794 µM [falling, partial curve]
36 | CN(C)c1ccc(-c2nc(NCc3cccnc3)c3ccccc3n2)cc1 | 10 µM [rising, partial curve]
37 | O=C(CCCCCN1C(=O)c2ccccc2C1=O)Nc1nccs1 | 10 µM [rising, single point]
38 | COc1ccc(-c2nnc3ccc(SCC(=O)N4CCN(c5ccccc5)CC4)nn23)cc1OC | 1.58 µM [rising, partial curve]
39 | O=c1[nH]c(CN2CCN(c3ccccc3)CC2)nc2ccccc12 | 5.01 µM [falling, partial curve, poor fit]
40 | COCC(=O)Nc1sc2c(c1C(=O)OC)C(C(=O)OC)CC2 (centres undefined) | 25.1 µM [rising, single point]
41 | CCOC(=O)Cn1cnc2c(nnn2-c2ccc(C)cc2)c1=O | 12.6 µM [rising, partial curve]
42 | COc1ccccc1C1CC(c2ccc(Cl)cc2Cl)Nc2nc(N)nn21 (centres undefined) | 12.6 µM [rising, single point]
43 | CC(=O)N1CCN(c2ccccc2NC(=O)COc2ccc(Cl)cc2Cl)CC1 | 5.01 µM [rising, partial curve]
44 | CCN(CC)CCOc1cc2c(nn1)Oc1ccccc1N2C | 0.501 µM [falling, partial curve]

Structures shown so far that have a halogen (ten):
Row | Compound | AC50
1 | Cn1c(=O)c(-c2ccc(F)cc2)nc2cnc(Nc3ccccc3)nc21 | 1.58 µM [rising, full curve]
4 | O=C(NCc1ccc(Cl)cc1Cl)c1ccccn1 | 0.398 µM [falling, full curve, poor fit]
6 | Cc1cc(C)nc(N2CCCC(C(=O)NCCc3cccc(F)c3)C2)n1 (centres undefined) | 12.6 µM [falling, partial curve]
10 | O=C(CCn1cnc2ccccc2c1=O)Nc1cccc(Cl)c1 | 20 µM [rising, partial curve, poor fit]
19 | Cc1cc(Nc2cc(F)ccc2C)n2ncnc2n1 | 12.6 µM [rising, single point]
25 | O=C(OCc1c(Cl)nc2sccn12)c1cc2c(s1)CCCC2 | 0.794 µM [falling, partial curve]
28 | O=C(O)CCc1ccc(-c2ccc(Cl)cc2)n1CC(=O)O | 2 µM [rising, partial curve]
33 | O=c1c2c3nc4ccccc4nc3n(-c3cccc(F)c3)c2ncn1Cc1ccc2c(c1)OCO2 | 6.31 µM [rising, partial curve]
42 | COc1ccccc1C1CC(c2ccc(Cl)cc2Cl)Nc2nc(N)nn21 (centres undefined) | 12.6 µM [rising, single point]
43 | CC(=O)N1CCN(c2ccccc2NC(=O)COc2ccc(Cl)cc2Cl)CC1 | 5.01 µM [rising, partial curve]
